Measured values reported in PubChem BioAssay AID624297 (National Center for Advancing Translational Sciences (NCATS), 2012).
The campaign covered roughly 340,000 compounds. About 6,200 (1.8%) were called active. The shares of active, inactive and inconclusive entries below differ from those in the screen. Calls come from the whole dose curve; as a rule, active = well fitted activation curve with a large enough effect; inconclusive = small, poorly fitted or top-dose-only effect; inactive = no such curve, though single readings can be large or run the other way. Where the call is inconclusive, the potency comes from a doubtful curve fit.

Experiment: A quantitative high throughput screen for small molecules that induce DNA re-replication in SW480 colon adenocarcinoma cells. For re-replication activation: % of control where 0% means no effect. Note: nearly all actives have a fitted effect of over 55% in size.
Conditions: Hoechst DNA content imaging, 48 h; re-replication activation: at 46.1 µM (top of the series) unless noted
Method in brief: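 First, 250 cells per well were seeded. Next, compound or vehicle (23 nL) was pinned in, plates sat 48 hr at 37 C. Finally Hoechst was added for 40 min before fluorescence scanning.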
Potency is the fitted concentration of half-maximal effect.

Row | SMILES | re-replication activation | Potency
1 | CC(C)(C)c1ccc(OCC(=O)N/N=C/c2cc(Br)ccc2OC(=O)c2ccco2)cc1 | inactive: 12.7% | 
2 | CC(=O)Nc1ccc(S(=O)(=O)NCc2nc(-c3cccc(C)c3)no2)cc1 |  | inconclusive: 29.1 µM [activator, single point]
3 | Cc1ccc(CNC(=O)CCS(=O)(=O)c2ccc3c(c2)CC(C)N3C(=O)C2CC2)cc1 (stereo not given) |  | inconclusive: 23.1 µM [activator, single point]
4 | O=C(NCCCSc1ccccc1)c1ccc(=O)[nH]c1 |  | inconclusive: 29.1 µM [activator, single point]
5 | Cc1ccc2c(c1)N(CC(=O)N1CCCCCC1)C(=O)CO2 |  | inconclusive: 0.206 µM [activator, full curve, poor fit]
6 | COc1ccc(Cl)cc1NC(=O)CN1C(=O)NC2(CCCC2)C1=O |  | inconclusive: 2.91 µM [activator, full curve]
7 | Cc1c(/N=C(\[O-])Nc2ccc(Br)cc2)sn[n+]1C |  | inconclusive: 18.4 µM [activator, single point]
8 | COc1ccc(S(=O)(=O)Nc2noc3ccccc23)cc1 | inactive: -11.8% | 
9 | S=c1[nH]nc(-c2cc(-c3ccco3)[nH]n2)n1-c1ccccc1 | inactive: -6.86% | 
10 | Cc1ccnc(NS(=O)(=O)c2ccc(NC(=O)c3ccc([N+](=O)[O-])s3)cc2)n1 |  | active: 18.4 µM
11 | CC(/C=N\NC(=O)Cn1c(C)nc2ccccc21)=C\c1ccccc1 | inactive: -0.789% | 
12 | COc1ccc(OC)c(CN2CCN(C(=O)CCNC(=O)c3ccc(Br)cc3)CC2)c1 |  | inconclusive: 16.4 µM [activator, partial curve, poor fit]
13 | Cc1nc(NC(=O)CCN2C(=O)C3CC=CCC3C2=O)sc1C (stereo not given) | inactive: 5.46% | 
14 | Cc1ccc(NC(=O)NCc2ccc3c(c2)OCO3)cc1C | inactive: -5.82% | 
15 | CC(=O)C1(O)C(C)CC2C3CC(F)C4(O)CC(O)CCC4(C)C3CCC21C (stereo not given) | inactive: -6.59% | 
16 | CCN(CC)c1ccc(-c2nn3c(-c4cccnc4)nnc3s2)cc1 |  | active: 20.6 µM
17 | CCN(CC)C(=O)c1sc2nc(-c3ccccc3)ccc2c1N |  | active: 20.6 µM
18 | O=C(Nc1ccc([N+](=O)[O-])cc1)Nc1cnccn1 |  | inconclusive: 23.1 µM [activator, partial curve, poor fit]
19 | NC(=O)c1ccc(-n2c(CCC(=O)O)ccc2-c2cccs2)cc1 |  | inconclusive: 16.4 µM [activator, single point]
20 | CCCn1c(C(=O)OC)cc2c1ccn2-c1ccc(F)cc1 | inactive: 7.66% | 
21 | CCN(CC)S(=O)(=O)c1cc(NC(=O)C2Cc3ccccc3C(=O)O2)ccc1C (stereo not given) | inactive: 0.694% | 
22 | Cc1[nH]c(C)c(S(=O)(=O)NCCc2ccccc2)c1C(=O)N1CCCC1 |  | inconclusive: 20.6 µM [activator, single point]
23 | COc1ccccc1N(C)S(=O)(=O)c1ccc(C(=O)Nc2cc(OC)c(OC)c(OC)c2)cc1 |  | inconclusive: 29.1 µM [activator, single point]

Row | SMILES | re-replication activation | Potency
24 | Cc1cccc(N2CCN(CC3CCCCC3)CC2)c1C | inactive: -43.8% | 
25 | COc1cc(OC)c(N(C)S(=O)(=O)c2cccc(C(=O)NC3=NCCS3)c2)cc1Cl |  | inconclusive: 29.1 µM [activator, single point]
26 | CCC1(c2ccc(Cl)cc2)NC(=O)N(CC(=O)NC2(C#N)CCCCC2)C1=O (stereo not given) |  | inconclusive: 18.4 µM [activator, single point]
27 | COC(=O)/C=C1\SC(=Nc2ccccc2)NC1=O |  | inconclusive: 0.116 µM [activator, full curve, poor fit]
28 | O=C(COc1ccccc1Cl)NC(=S)Nc1ccccc1N1CCCC1 |  | inconclusive: 0.146 µM [activator, full curve, poor fit]
29 | CN(C)c1ccc(C(=C2C=CC(=[N+](C)C)C=C2)c2ccc(N(C)C)cc2)cc1 |  | inconclusive: 5.31 µM [activator, full curve]
30 | O=C1NC(=S)S/C1=C\c1cccc([N+](=O)[O-])c1 |  | inconclusive: 29.1 µM [activator, single point]
31 | CCC(C)(C)NC(=O)C(c1sccc1C)N(Cc1ccco1)C(=O)c1csnn1 (stereo not given) | inactive: -8.11% | 
32 | O=C(CCc1nc2ccccc2c(=O)[nH]1)Nc1nc(-c2cccs2)cs1 |  | inconclusive: 18.4 µM [activator, single point]
33 | Cc1ccc(N(C)S(=O)(=O)c2cccc(C(=O)N(C)Cc3cnn(-c4ccccc4)c3)c2)cc1 |  | inconclusive: 20.6 µM [activator, single point]
34 | COc1ccc(-c2cccc(-c3cc(=O)oc4ccc(C(C)(C)C)cc34)c2)cc1 |  | inconclusive: 29.1 µM [activator, partial curve, poor fit]
35 | CCCCN(CCCC)CCNC(=O)CNC(=O)c1cccs1 | inactive: -6.85% | 
36 | COc1ccc(C(CCN(Cc2ccc(OC)c(OC)c2)C(C)=O)C(C)C)cc1 (stereo not given) | inactive: -16% | 
37 | O=C(NCc1ccco1)c1ccc(S(=O)(=O)N2CCCc3ccccc32)cc1 |  | inconclusive: 29.1 µM [activator, single point]
38 | O=S(=O)(Nc1ccc(Cl)cc1)c1ccc(N2CCOCC2)c(NC(=S)NCCN2CCOCC2)c1 |  | inconclusive: 29.1 µM [activator, single point]
39 | CN(CC1COc2ccccc2O1)C(=S)Nc1ccccc1 (stereo not given) | inactive: 0.446% | 
40 | COc1ccccc1NC(C)C(=O)N/N=C/c1ccccc1OCc1cccc(Br)c1 (stereo not given) |  | inconclusive: 29.1 µM [activator, single point]
41 | Cc1cccc(N(C)C(=O)c2cc3cc4ccc(C)cc4nc3o2)c1 |  | inconclusive: 20.6 µM [activator, single point]
42 | O=C(O)CSCc1nc2cccnc2n1C1CCCCC1 |  | inconclusive: 0.0041 µM [activator, full curve, poor fit]
43 | COc1ccc(NC(C#N)c2ccccc2OCc2ccccc2)cc1 (stereo not given) |  | inconclusive: 2.06 µM [activator, partial curve, poor fit]
44 | COc1ccc(NCc2ccccc2[N+](=O)[O-])cc1OC | inactive: 19% | 
45 | CCC(=O)c1ccc2c(c1)N(CCCN1CCN(CCO)CC1)c1ccccc1S2 |  | inconclusive: 13.3 µM [activator, single point]

Filtered by structure: the entries above containing a cyano group.
Row | SMILES | re-replication activation | Potency
26 | CCC1(c2ccc(Cl)cc2)NC(=O)N(CC(=O)NC2(C#N)CCCCC2)C1=O (stereo not given) |  | inconclusive: 18.4 µM [activator, single point]
43 | COc1ccc(NC(C#N)c2ccccc2OCc2ccccc2)cc1 (stereo not given) |  | inconclusive: 2.06 µM [activator, partial curve, poor fit]
